This passage reports EC50 results from paper PMC7402526, “An in vitro quantitative systems pharmacology approach for deconvolving mechanisms of drug-induced, multilineage cytopenias” (PLoS Computational Biology, 2020).

The structures appear in SMILES notation.

Common to all, as to assay type: cell-based
In experiment [1] the test system is hematopoietic stem cells (HSCs). The experiment in a line: Multi-lineage toxicity assay (MLTA), HSCs: concentration-response and QSP model fit. The following applies: Homo sapiens, Hematopoietic stem cell, 144 h; QSP model fit of 6-day MLTA data. Here is the method:
(§1) A custom optimized cytokine cocktail was developed using commercially available cytokines (Peprotech, New Jersey) to facilitate simultaneous multi-lineage differentiation and self-renewal of freeze-thawed primary human bone marrow-derived CD34+ cells in SFEM II media (cells and media from StemCell Technologies, Vancouver). Cultures were carried out in ultra-low attachment 96-well plates (Corning, New York) with test article added on day 0 and cultured at 37°C, 85% relative humidity, and 5% CO2 for six days before interrogating drug impact via 17-parameter flow cytometry.
(§2) The flow cytometry panel used to define hematopoietic subsets was composed of CD34-PECy7, CD90-PECY5, CD38-AF488, CD371-PE, CD45Ra-BV421, CD14-BV605, CD42b-AF647, CD10-PEDazzle594, CD235a-PerCPCy5.5 (BioLegend, California), CD15-BUV395, CD41a-APCH7, CD71-BV786 (BD Biosciences, California), and DAPI for dead cell exclusion (ThermoFisher, California). In short, Day 6 cells were harvested, FcR-blocked (FcR binding inhibitor, ThermoFisher), surface-stained, then analyzed in a buffer containing TruCount Control Beads using a BD LSR Fortessa SORP fitted with a high-throughput sampler (BD Biosciences, California). Data was analyzed in Diva 6.0.2 and exported to CSV where after all cell data was transformed to cell per mL then normalized on a per-donor basis to untreated control wells to determine drug impact. […]

For experiment [2], the system named is early erythroid cells (Eryth I). Nature of the experiment: MLTA, ErythI: concentration-response and QSP model fit. The following applies: Homo sapiens, 144 h; QSP model fit of 6-day MLTA data; read-out: EC50ErythI. The protocol:
as §1, §2

For experiment [3], the system named is B cells (B-lin). The experiment in a line: MLTA, B-lin: concentration-response and QSP model fit. The following applies: Homo sapiens, B-cell, 144 h; QSP model fit of 6-day MLTA data. The protocol:
as §1, §2

The subject of experiment [4] is late erythroid cells (Eryth II). The experiment in a line: MLTA, ErythII: concentration-response and QSP model fit. The following applies: Homo sapiens, 144 h; QSP model fit of 6-day MLTA data; read-out: EC50ErythII. Here is the method:
as §1, §2

Experiment [5] concerns monocytes (monocyte-lin). Nature of the experiment: MLTA, Mono: concentration-response and QSP model fit. To be noted: Homo sapiens, 144 h, QSP model fit of 6-day MLTA data. The protocol:
as §1, §2

The subject of experiment [6] is lymphocyte progenitors (LymP). Nature of the experiment: MLTA, LymP: concentration-response and QSP model fit. The following applies: Homo sapiens, 144 h, QSP model fit of 6-day MLTA data. The protocol:
as §1, §2

Experiment [7] has as its system MK cells (MK-lin). Nature of the experiment: MLTA, MK: concentration-response and QSP model fit. The following applies: Homo sapiens, 144 h; QSP model fit of 6-day MLTA data. The protocol: as §1, §2
In experiment [8] the test system is multi-potent progenitors (MPPs). Nature of the experiment: MLTA, MPPs: concentration-response and QSP model fit. The following applies: Homo sapiens, 144 h; QSP model fit of 6-day MLTA data. The protocol:
as §1, §2

Experiment [9] has as its system granulocytes (Gran-lin). The experiment in a line: MLTA, Gran: concentration-response and QSP model fit. To be noted: Homo sapiens, 144 h; QSP model fit of 6-day MLTA data. The protocol: as §1, §2
The subject of experiment [10] is neutrophils (neutrophil-lin). The experiment in a line: MLTA, Neut: concentration-response and QSP model fit. The following applies: Homo sapiens, 144 h, QSP model fit of 6-day MLTA data. Here is the method: as §1, §2

As to `CCc1cnn2c(NCc3ccc[n+]([O-])c3)cc(N3CCCC[C@H]3CCO)nc12` [dinaciclib], the EC50 in [1] worked out at 0.0707 µM; in experiment [2] it was 0.0258 µM; in [3] it was 0.0416 µM; in [4], 0.0328 µM; in experiment [5], 0.0284 µM; in [6], 0.0257 µM. For the same compound, the EC50 in experiment [7] turned out to be 0.0232 µM; in experiment [8] it was 0.0167 µM; in experiment [9] it was 0.168 µM; in experiment [10], 0.0142 µM.
